Results from patent US20170355953A1 (OSAKA UNIVERSITY, published 2017).

Target: Wnt5a fused with a TARGET tag at the N-terminus (W-Wnt5a)
Assay: co-purification with W-Wnt5a on P20.1-sepharose, SDS-PAGE

B1: bovine afamin (from fetal calf serum in the culture medium) (protein, UniProt G3MYZ3 22-604, looked up)
chain: LPTQPQDVDDVRITQKFIDDNIGYITIIAFAQYIQEASFEEVEMLVKAMTEYRDKCLADRTLPECSKLANEVLLENICAMEGLPQKYNFSHCCHKVDFERRLCFFHNKKADIGLLPPLPTLDPEEKCQTYKNNRESFLNNYVYEVSRRNPFVFAPTLLTVAARFEEMTKTCCEEQEKANCFQTKAEPFIYYLKALSSYQKNACRALMKFGRQILQSINIAILSQKFPKIGFKQLTSLLEDVSSKYDGCCEGDVVQCIRGRSKVMSHICSKQDSISSKIKDCCEKKIPERGECIIYSNKDDRPNDLSLREAKFIESDNVCEKRDADQANFMAEFLYEYSRRHPELSTPELLRIAKVYKDLLKECCNMENPPECYRHAENRFNETTEKSLKIVQRECEHFQNLGKDDLKYHYLINLTKLAPQLSTEELTFLGKEMVMALTTCCTLSEEFACVDNLVDLVLGELCGINENRNINPAVDHCCKTNFAFRRSCFESLEADKTYVPPSTSQGLFTFHADLCQAHNEELQRKKDRFLVNLVKLKPELAGEELWSLLADFTNVVEKCCKAQEPEACFKEESPKLAAKSQAA
binding: binds

Results are given in words; binding and its absence hold for the method and conditions named. In cells and extracts the contact can be indirect. Binding can be weak; no strength is given.
